Measurements reported in PubChem BioAssay AID1259405 (NCATS, 2018).
Assay: 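Knock-downs that lift recombinant protein yield in hamster ovary cells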 (primary screen). System: Chinese hamster CHO-K1 ovary cells with stable secreted eGFP expression. Knock-down reagent: single siRNA against mouse genes, 0.8 pmol siRNA per well (2 µl of 400 nM stock). Duration: 3 days. Measured: 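Per-well intracellular GFP measured by laser scanning cytometry, plus viability from ATP luminescence, each relative to plate median of non-targeting control wells, in %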. Scale: GFP, % of control: higher = more GFP per well, higher productivity; viability (ATP), % of control: higher = more viable cells (more ATP). Rule for the call: 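a knock-down is called active if GFP reaches 120% or more of non-targeting control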.
In all, the deposit lists about 50,000 reagents; this is a random part of them. In the full data, about 4,000 (8%) got an active call. 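Mouse siRNA library applied to hamster cells; one well for each siRNA.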 The numbers tell different reagents against one gene apart.

| Target gene | siRNA no. | GFP, % of control | viability (ATP), % of control | call |
| --- | --- | --- | --- | --- |
| Gls2 (GeneID 216456) | 1 | 77.4 | 92.8 | inactive |
| Gls2 (GeneID 216456) | 2 | 134 | 90.4 | active |
| Gls2 (GeneID 216456) | 3 | 59.8 | 54.8 | inactive |
| Cant1 (GeneID 76025) | 1 | 100 | 116 | inactive |
| Cant1 (GeneID 76025) | 2 | 56.9 | 68.2 | inactive |
| Cant1 (GeneID 76025) | 3 | 69 | 67.9 | inactive |
| Ear14 (GeneID 503847) | 1 | 55 | 44.2 | inactive |
| Ear14 (GeneID 503847) | 2 | 85.6 | 95.9 | inactive |
| Ear14 (GeneID 503847) | 3 | 35.2 | 44.4 | inactive |
| Hmgb3 (GeneID 15354) | 1 | 102 | 98.4 | inactive |
| Hmgb3 (GeneID 15354) | 2 | 72.7 | 89.4 | inactive |
| Hmgb3 (GeneID 15354) | 3 | 89.6 | 108 | inactive |
| Mrps26 (GeneID 99045) | 1 | 89.1 | 81 | inactive |
| Mrps26 (GeneID 99045) | 2 | 27.5 | 34.4 | inactive |
| Mrps26 (GeneID 99045) | 3 | 77.2 | 76.2 | inactive |
| Tmtc1 (GeneID 387314) | 1 | 135 | 131 | active |
| Tmtc1 (GeneID 387314) | 2 | 95.7 | 184 | inactive |
| Tmtc1 (GeneID 387314) | 3 | 79.6 | 108 | inactive |
| Or14a259 (GeneID 258609) | 1 | 104 | 67.7 | inactive |
| Or14a259 (GeneID 258609) | 2 | 55.2 | 70.3 | inactive |
| Or14a259 (GeneID 258609) | 3 | 97.6 | 46.2 | inactive |
| Samd7 (GeneID 75953) | 1 | 29.1 | 62.6 | inactive |
| Samd7 (GeneID 75953) | 2 | 93 | 56.8 | inactive |
| Poglut2 (GeneID 72050) | 1 | 54.9 | 57.3 | inactive |
| Poglut2 (GeneID 72050) | 2 | 72.7 | 51.9 | inactive |
| Poglut2 (GeneID 72050) | 3 | 61.1 | 77.1 | inactive |
| Acaa1a (GeneID 113868) | 1 | 68.3 | 71.9 | inactive |
| Acaa1a (GeneID 113868) | 2 | 100 | 101 | inactive |
| Acaa1a (GeneID 113868) | 3 | 114 | 118 | inactive |
| Ei24 (GeneID 13663) | 1 | 121 | 103 | active |
| Ei24 (GeneID 13663) | 2 | 135 | 46.1 | active |
| Ei24 (GeneID 13663) | 3 | 112 | 69.2 | inactive |
| Alox12e (GeneID 11685) | 1 | 77.6 | 41 | inactive |
| Alox12e (GeneID 11685) | 2 | 45.7 | 46.2 | inactive |
| Alox12e (GeneID 11685) | 3 | 78.5 | 85 | inactive |
| Ulk4 (GeneID 209012) | 1 | 61.1 | 84.1 | inactive |
| Ulk4 (GeneID 209012) | 2 | 35.6 | 31.9 | inactive |
| Ulk4 (GeneID 209012) | 3 | 71.5 | 101 | inactive |
| Or12d17 (GeneID 258832) | 1 | 70.1 | 103 | inactive |
| Or12d17 (GeneID 258832) | 2 | 75.6 | 98.2 | inactive |
| Or12d17 (GeneID 258832) | 3 | 46.8 | 60.8 | inactive |
| Or5p66 (GeneID 258491) | 1 | 99.7 | 67.1 | inactive |
| Or5p66 (GeneID 258491) | 2 | 75.5 | 62.5 | inactive |
| Or5p66 (GeneID 258491) | 3 | 64.1 | 24.1 | inactive |
| Zbbx (GeneID 213234) | 1 | 57.8 | 39.9 | inactive |
| Zbbx (GeneID 213234) | 2 | 134 | 141 | active |
| Zbbx (GeneID 213234) | 3 | 106 | 121 | inactive |
| Rnf151 (GeneID 67504) | 1 | 49.6 | 60 | inactive |
| Rnf151 (GeneID 67504) | 2 | 33.1 | 66.7 | inactive |
| Rnf151 (GeneID 67504) | 3 | 70.5 | 82.5 | inactive |
| Zfp593 (GeneID 68040) | 1 | 112 | 142 | inactive |
| Zfp593 (GeneID 68040) | 2 | 84 | 97.4 | inactive |
| Zfp593 (GeneID 68040) | 3 | 61.2 | 44.4 | inactive |
| Serpina9 (GeneID 71907) | 1 | 88.1 | 100 | inactive |
| Serpina9 (GeneID 71907) | 2 | 132 | 78.9 | active |
| Serpina9 (GeneID 71907) | 3 | 56.3 | 78.6 | inactive |
| Or1ak2 (GeneID 258617) | 1 | 101 | 74.5 | inactive |
| Or1ak2 (GeneID 258617) | 2 | 87.2 | 85.2 | inactive |
| Or1ak2 (GeneID 258617) | 3 | 109 | 58 | inactive |
| Mmrn2 (GeneID 105450) | 1 | 30.9 | 25.6 | inactive |
| Mmrn2 (GeneID 105450) | 2 | 93.6 | 72.3 | inactive |
| Mmrn2 (GeneID 105450) | 3 | 69.5 | 63.3 | inactive |
| Mrpl15 (GeneID 27395) | 1 | 59.7 | 54.5 | inactive |
| Mrpl15 (GeneID 27395) | 2 | 70.1 | 51 | inactive |
| Mrpl15 (GeneID 27395) | 3 | 96.7 | 87.5 | inactive |
| Ptprn2 (GeneID 19276) | 1 | 52.9 | 57.9 | inactive |
| Ptprn2 (GeneID 19276) | 2 | 74.4 | 52.7 | inactive |
| Ptprn2 (GeneID 19276) | 3 | 85.7 | 72 | inactive |
| Kcnh8 (GeneID 211468) | 1 | 92.3 | 91.4 | inactive |
| Kcnh8 (GeneID 211468) | 2 | 76.9 | 65.3 | inactive |
| Kcnh8 (GeneID 211468) | 3 | 96.5 | 91.7 | inactive |
| Tex47 (GeneID 70920) | 1 | 118 | 87.9 | inactive |
| Tex47 (GeneID 70920) | 2 | 127 | 67.1 | active |
| Tex47 (GeneID 70920) | 3 | 74.1 | 101 | inactive |
| Lef1 (GeneID 16842) | 1 | 86.3 | 124 | inactive |
| Lef1 (GeneID 16842) | 2 | 145 | 73.1 | active |
| Lef1 (GeneID 16842) | 3 | 52.1 | 53.5 | inactive |
| Ces2c (GeneID 234671) | 1 | 42.5 | 41.2 | inactive |
| Ces2c (GeneID 234671) | 2 | 118 | 100 | inactive |
| Ces2c (GeneID 234671) | 3 | 72.5 | 65.5 | inactive |
| Efcab9 (GeneID 69306) | 1 | 89.4 | 120 | inactive |
| Efcab9 (GeneID 69306) | 2 | 64.7 | 74 | inactive |
| Efcab9 (GeneID 69306) | 3 | 81.9 | 63.3 | inactive |
| Or5b12b (GeneID 258694) | 1 | 117 | 75.2 | inactive |
| Or5b12b (GeneID 258694) | 2 | 90.9 | 50.6 | inactive |
| Or5b12b (GeneID 258694) | 3 | 61.5 | 79.2 | inactive |

8 of these entries, reformatted:
Target gene	siRNA no.	GFP, % of control	viability (ATP), % of control	call
Tex47 (GeneID 70920)	2	127	67.1	active
Tex47 (GeneID 70920)	3	74.1	101	inactive
Lef1 (GeneID 16842)	1	86.3	124	inactive
Lef1 (GeneID 16842)	2	145	73.1	active
Lef1 (GeneID 16842)	3	52.1	53.5	inactive
Ces2c (GeneID 234671)	1	42.5	41.2	inactive
Ces2c (GeneID 234671)	2	118	100	inactive
Ces2c (GeneID 234671)	3	72.5	65.5	inactive
